PubChem BioAssay AID602196 – INSERM | 2012

Purpose: 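Modifiers of cisplatin sensitivity in A549 cells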
Cells: human A549 lung cancer cells
Reagents: siRNA pair against human genes
Timing: 48 h transfection before cisplatin; time from cisplatin to read-out not stated
Treatment: cisplatin at a dose killing half of control-siRNA cells; exact dose and duration not given
Measured: 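Shift in cisplatin death relative to control siRNA, from -50 (all cells die) to +50 (no cells die); siRNAs harmful on their own scored 0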
Scale: two-siRNA summed score (-2 to +2): higher = both siRNAs protect from cisplatin killing; -2 means both sensitise
Active means: 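siRNAs harmful alone (LDH or WST-1) get 0; others get +1 for less and -1 for more cisplatin killing; genes are active when the two siRNAs give the same sign, summing to ±2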
Meaning of the calls: active = both siRNAs shift cisplatin killing the same way; inactive = no consistent shift, or siRNA harmful alone
Shown is a random part of about 23,000 reagents. 455 of them (2%) count as active. 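Active includes both protection and sensitisation; some change values fall well beyond the stated -50 to +50 range.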 Not all columns of the deposit are shown. The record does not give: the amount of reagent.

HSPD1 [SID131511132] → two-siRNA summed score (-2 to +2): 0; Outcome: inactive
LOC390335 [SID131510029] → two-siRNA summed score (-2 to +2): 0; Outcome: inactive
RAMP3 [SID131506076] → two-siRNA summed score (-2 to +2): 0; Outcome: inactive
ZNF668 [SID131512932] → two-siRNA summed score (-2 to +2): 0; Outcome: inactive
F2RL3 [SID131510800] → two-siRNA summed score (-2 to +2): 0; Outcome: inactive
RNF146 [SID131500885] → two-siRNA summed score (-2 to +2): -1; Outcome: inactive
LOC441710 [SID131520824] → two-siRNA summed score (-2 to +2): 1; Outcome: inactive
FHIP2B [SID131508980] → two-siRNA summed score (-2 to +2): 0; Outcome: inactive
UBFD1 [SID131506060] → two-siRNA summed score (-2 to +2): 0; Outcome: inactive
UBR4 [SID131513960] → two-siRNA summed score (-2 to +2): 0; Outcome: inactive
SYMPK [SID131515223] → two-siRNA summed score (-2 to +2): 0; Outcome: inactive
PRMT8 [SID131500695] → two-siRNA summed score (-2 to +2): -1; Outcome: inactive

Not a retest: entries from further up.
LOC441710 [SID131520824] → two-siRNA summed score (-2 to +2): 1; Outcome: inactive
FHIP2B [SID131508980] → two-siRNA summed score (-2 to +2): 0; Outcome: inactive

The list goes on:
PLA2G15 [SID131506005] → two-siRNA summed score (-2 to +2): 0; Outcome: inactive
FLYWCH2 [SID131505051] → two-siRNA summed score (-2 to +2): 0; Outcome: inactive
EPS15L1 [SID131500601] → two-siRNA summed score (-2 to +2): -1; Outcome: inactive
PCNX1 [SID131505429] → two-siRNA summed score (-2 to +2): 0; Outcome: inactive
DNAJA2 [SID131520229] → two-siRNA summed score (-2 to +2): 1; Outcome: inactive
LOC284158 [SID131513309] → two-siRNA summed score (-2 to +2): 0; Outcome: inactive
TRMT112P6 [SID131509820] → two-siRNA summed score (-2 to +2): 0; Outcome: inactive
LOC388131 [SID131516411] → two-siRNA summed score (-2 to +2): 0; Outcome: inactive
LOC389656 [SID131513364] → two-siRNA summed score (-2 to +2): 0; Outcome: inactive
RSF1 [SID131502798] → two-siRNA summed score (-2 to +2): 0; Outcome: inactive
LOC152118 [SID131514930] → two-siRNA summed score (-2 to +2): 0; Outcome: inactive
EMP2P1 [SID131504933] → two-siRNA summed score (-2 to +2): 0; Outcome: inactive
LOC440888 [SID131507640] → two-siRNA summed score (-2 to +2): 0; Outcome: inactive
CRAMP1 [SID131502918] → two-siRNA summed score (-2 to +2): 0; Outcome: inactive
NDUFA6 [SID131509580] → two-siRNA summed score (-2 to +2): 0; Outcome: inactive
HMGN4 [SID131521357] → two-siRNA summed score (-2 to +2): 1; Outcome: inactive
DCP1A [SID131512328] → two-siRNA summed score (-2 to +2): 0; Outcome: inactive
LOC283530 [SID131513394] → two-siRNA summed score (-2 to +2): 0; Outcome: inactive
RSRC2 [SID131507630] → two-siRNA summed score (-2 to +2): 0; Outcome: inactive
